Paper PMC5519194
These are yes or no findings as the source states them, for the method shown. Some entries that bind do so weakly or less than the wild type. Tags and fused reporters may be left off the sequences shown.

Target: 6myc-HAS2 (hyaluronan synthase 2, wild type) (UniProt Q92819)
Assay: immunoblot after SDS-PAGE; lysates of HEK293T cells expressing 6myc-HAS2, blot with anti-myc; bands of 130-140 kDa beside the 70 kDa band

B1: 6myc-HAS2 (hyaluronan synthase 2, wild type) (enzyme, UniProt Q92819 1-552)
chain: MHCERFLCILRIIGTTLFGVSLLLGITAAYIVGYQFIQTDNYYFSFGLYGAFLASHLIIQSLFAFLEHRKMKKSLETPIKLNKTVALCIAAYQEDPDYLRKCLQSVKRLTYPGIKVVMVIDGNSEDDLYMMDIFSEVMGRDKSATYIWKNNFHEKGPGETDESHKESSQHVTQLVLSNKSICIMQKWGGKREVMYTAFRALGRSVDYVQVCDSDTMLDPASSVEMVKVLEEDPMVGGVGGDVQILNKYDSWISFLSSVRYWMAFNIERACQSYFGCVQCISGPLGMYRNSLLHEFVEDWYNQEFMGNQCSFGDDRHLTNRVLSLGYATKYTARSKCLTETPIEYLRWLNQQTRWSKSYFREWLYNAMWFHKHHLWMTYEAIITGFFPFFLIATVIQLFYRGKIWNILLFLLTVQLVGLIKSSFASCLRGNIVMVFMSLYSVLYMSSLLPAKMFAIATINKAGWGTSGRKTIVVNFIGLIPVSVWFTILLGGVIFTIYKESKRPFSESKQTVLIVGTLLYACYWVMLLTLYVVLINKCGRRKKGQQYDMVLDV
Q: How did the binding turn out when B1 was run?
A: binds
